Reference: the M2OR odorant receptor database
This is a selection; strong and weak results do not stand in their true shares. The calls were merged from several studies; some rest on single wells. The list shows a part of the results.

Sequences of proteins named here, by UniProt entry; tags and fusion partners are left off. A line that says so, or that is headed by a name, gives the form on record, which may keep a tag or linker.
UniProt Q8VG26, as listed by the source: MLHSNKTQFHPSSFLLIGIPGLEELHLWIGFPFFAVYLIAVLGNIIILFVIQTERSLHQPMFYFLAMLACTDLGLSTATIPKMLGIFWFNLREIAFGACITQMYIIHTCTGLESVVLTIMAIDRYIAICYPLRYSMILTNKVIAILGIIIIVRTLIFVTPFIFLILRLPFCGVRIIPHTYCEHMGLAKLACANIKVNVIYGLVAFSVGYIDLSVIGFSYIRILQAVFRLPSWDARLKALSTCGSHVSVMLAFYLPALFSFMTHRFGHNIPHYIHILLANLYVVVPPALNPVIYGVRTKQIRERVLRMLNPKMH
UniProt Q8VG28, as listed by the source: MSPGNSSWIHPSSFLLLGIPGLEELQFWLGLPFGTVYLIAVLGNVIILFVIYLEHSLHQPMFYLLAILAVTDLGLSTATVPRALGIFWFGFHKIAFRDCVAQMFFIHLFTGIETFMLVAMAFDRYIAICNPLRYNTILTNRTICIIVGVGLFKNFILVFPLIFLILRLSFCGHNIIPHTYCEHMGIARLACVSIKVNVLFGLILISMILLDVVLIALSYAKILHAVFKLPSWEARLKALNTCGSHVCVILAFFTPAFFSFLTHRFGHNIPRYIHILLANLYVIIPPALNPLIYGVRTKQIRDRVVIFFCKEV
UniProt Q8VFB8, as listed by the source: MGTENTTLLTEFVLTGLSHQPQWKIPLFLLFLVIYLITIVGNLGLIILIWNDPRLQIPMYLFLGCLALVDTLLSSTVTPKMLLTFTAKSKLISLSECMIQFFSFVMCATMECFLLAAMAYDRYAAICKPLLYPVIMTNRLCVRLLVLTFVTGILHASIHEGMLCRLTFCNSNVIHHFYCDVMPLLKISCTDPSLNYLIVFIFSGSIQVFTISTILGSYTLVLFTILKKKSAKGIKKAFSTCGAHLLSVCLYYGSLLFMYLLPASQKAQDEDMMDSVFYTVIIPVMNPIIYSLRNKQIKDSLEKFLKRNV
UniProt Q8VFQ6, as listed by the source: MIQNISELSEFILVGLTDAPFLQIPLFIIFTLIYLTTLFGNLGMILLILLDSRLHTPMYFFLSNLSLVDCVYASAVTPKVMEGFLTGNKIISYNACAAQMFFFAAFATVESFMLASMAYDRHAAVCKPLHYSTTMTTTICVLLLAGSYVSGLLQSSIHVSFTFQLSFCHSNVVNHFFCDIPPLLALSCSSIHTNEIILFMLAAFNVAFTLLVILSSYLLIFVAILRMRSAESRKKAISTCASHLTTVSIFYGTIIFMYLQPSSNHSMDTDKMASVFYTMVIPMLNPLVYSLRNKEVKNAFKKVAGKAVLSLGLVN
UniProt Q8VGE3, as listed by the source: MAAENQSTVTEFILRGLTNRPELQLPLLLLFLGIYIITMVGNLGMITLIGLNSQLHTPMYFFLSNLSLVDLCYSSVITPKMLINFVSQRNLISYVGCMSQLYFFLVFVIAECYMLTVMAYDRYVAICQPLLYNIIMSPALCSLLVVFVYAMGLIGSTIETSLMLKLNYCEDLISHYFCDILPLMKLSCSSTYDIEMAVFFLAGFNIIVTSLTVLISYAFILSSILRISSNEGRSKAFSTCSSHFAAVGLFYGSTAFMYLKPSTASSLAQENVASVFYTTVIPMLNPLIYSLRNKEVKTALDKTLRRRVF

Experiments:
Details in all cases: stereoisomer not certain
[1] = biological target: T1, UniProt Q8VGC6
T1 sequence (whole entry): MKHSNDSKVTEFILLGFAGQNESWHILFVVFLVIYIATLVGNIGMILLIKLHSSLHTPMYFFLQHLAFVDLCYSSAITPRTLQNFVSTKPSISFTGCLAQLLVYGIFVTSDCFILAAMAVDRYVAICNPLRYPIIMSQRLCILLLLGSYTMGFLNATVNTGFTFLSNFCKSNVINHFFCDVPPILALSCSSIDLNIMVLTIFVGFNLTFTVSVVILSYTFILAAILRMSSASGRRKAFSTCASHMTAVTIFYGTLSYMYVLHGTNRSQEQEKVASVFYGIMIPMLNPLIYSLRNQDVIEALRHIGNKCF
Outline: (§1)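 Values were gathered from published papers (main text and supplementary material), with extra details requested from the original authors when needed, and checked for typos and inconsistencies. Each receptor–molecule pair is called responsive (active) if the original authors judged the measured signal statistically different from baseline, and non-responsive (inactive) otherwise. Assay methods varied by source, often transient mammalian cell-line luciferase assays. Recorded details include cell line, G-protein, co-transfected protein and tags.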

[2] = biological target: T2, UniProt Q8VFM8
T2 sequence (whole entry): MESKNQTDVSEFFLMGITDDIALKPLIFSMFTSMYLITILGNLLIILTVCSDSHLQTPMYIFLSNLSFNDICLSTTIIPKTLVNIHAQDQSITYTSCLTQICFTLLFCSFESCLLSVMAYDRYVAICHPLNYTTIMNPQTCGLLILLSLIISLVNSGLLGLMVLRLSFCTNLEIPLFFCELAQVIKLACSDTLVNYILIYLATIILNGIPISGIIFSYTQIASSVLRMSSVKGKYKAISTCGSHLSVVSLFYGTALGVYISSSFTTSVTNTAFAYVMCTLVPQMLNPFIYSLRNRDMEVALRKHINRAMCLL
Outline: as §1

[3] = biological target: T3, UniProt Q8VFP5
T3 sequence (whole entry): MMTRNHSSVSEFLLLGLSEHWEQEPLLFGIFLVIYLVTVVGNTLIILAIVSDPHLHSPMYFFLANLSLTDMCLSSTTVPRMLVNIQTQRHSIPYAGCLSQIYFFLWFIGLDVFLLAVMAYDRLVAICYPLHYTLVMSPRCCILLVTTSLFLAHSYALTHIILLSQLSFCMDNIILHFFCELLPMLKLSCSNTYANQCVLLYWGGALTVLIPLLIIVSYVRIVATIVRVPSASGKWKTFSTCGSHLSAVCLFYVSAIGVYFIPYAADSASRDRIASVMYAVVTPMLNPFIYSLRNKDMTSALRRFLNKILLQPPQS
Outline: as §1

[4] = biological target: T4, UniProt Q8VG01
T4 sequence (whole entry): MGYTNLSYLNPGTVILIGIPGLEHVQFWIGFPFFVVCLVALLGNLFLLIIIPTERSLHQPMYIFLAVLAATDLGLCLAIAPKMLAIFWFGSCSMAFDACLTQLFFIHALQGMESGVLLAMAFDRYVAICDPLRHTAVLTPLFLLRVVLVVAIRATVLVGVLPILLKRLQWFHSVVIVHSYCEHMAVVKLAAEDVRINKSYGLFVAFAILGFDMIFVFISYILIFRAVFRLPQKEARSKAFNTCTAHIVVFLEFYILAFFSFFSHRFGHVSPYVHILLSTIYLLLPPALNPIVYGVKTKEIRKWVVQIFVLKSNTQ
Outline: as §1

[5] = biological target: T5, UniProt Q8VG27
T5 sequence (whole entry): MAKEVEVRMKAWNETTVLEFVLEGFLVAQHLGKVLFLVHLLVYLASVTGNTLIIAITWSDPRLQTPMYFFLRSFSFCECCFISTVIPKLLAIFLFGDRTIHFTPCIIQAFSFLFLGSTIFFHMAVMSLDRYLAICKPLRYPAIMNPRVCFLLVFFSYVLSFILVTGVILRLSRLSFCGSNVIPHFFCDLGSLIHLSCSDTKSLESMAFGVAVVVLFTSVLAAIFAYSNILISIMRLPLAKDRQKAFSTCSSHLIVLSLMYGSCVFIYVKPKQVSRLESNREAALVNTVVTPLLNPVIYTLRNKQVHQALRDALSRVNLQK
Outline: as §1

[6] = biological target: T6, UniProt Q8VG53
T6 sequence (whole entry): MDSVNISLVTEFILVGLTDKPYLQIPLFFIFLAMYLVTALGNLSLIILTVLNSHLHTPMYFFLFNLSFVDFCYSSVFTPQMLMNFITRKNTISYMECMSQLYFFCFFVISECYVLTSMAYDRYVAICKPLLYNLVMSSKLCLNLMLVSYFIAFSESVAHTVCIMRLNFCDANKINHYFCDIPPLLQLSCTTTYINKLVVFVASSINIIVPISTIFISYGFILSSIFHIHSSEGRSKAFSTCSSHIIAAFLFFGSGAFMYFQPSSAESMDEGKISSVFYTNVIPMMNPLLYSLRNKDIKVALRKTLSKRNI
Outline: as §1

[7] = biological target: T7, UniProt Q8VG64
T7 sequence (whole entry): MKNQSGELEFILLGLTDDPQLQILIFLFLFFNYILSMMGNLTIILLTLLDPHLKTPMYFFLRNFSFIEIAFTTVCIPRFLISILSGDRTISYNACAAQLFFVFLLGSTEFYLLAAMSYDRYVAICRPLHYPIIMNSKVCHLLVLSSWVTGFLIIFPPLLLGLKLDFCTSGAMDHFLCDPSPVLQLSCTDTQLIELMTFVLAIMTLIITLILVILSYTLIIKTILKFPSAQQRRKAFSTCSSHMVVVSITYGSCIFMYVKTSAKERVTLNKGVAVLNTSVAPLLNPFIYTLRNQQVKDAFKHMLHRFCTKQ
Outline: as §1

[8] = biological target: T8, UniProt Q8VGB9
T8 sequence (whole entry): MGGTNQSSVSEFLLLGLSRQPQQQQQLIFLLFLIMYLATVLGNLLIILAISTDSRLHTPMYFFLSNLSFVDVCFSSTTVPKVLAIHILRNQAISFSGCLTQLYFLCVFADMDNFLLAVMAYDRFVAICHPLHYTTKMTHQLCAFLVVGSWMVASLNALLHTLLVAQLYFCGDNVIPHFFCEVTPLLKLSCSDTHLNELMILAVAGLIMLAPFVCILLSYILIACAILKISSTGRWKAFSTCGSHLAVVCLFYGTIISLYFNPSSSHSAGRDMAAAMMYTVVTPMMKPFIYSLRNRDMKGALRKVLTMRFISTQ
Outline: as §1

[9] = biological target: T9, UniProt Q8VFG6
T9 sequence (whole entry): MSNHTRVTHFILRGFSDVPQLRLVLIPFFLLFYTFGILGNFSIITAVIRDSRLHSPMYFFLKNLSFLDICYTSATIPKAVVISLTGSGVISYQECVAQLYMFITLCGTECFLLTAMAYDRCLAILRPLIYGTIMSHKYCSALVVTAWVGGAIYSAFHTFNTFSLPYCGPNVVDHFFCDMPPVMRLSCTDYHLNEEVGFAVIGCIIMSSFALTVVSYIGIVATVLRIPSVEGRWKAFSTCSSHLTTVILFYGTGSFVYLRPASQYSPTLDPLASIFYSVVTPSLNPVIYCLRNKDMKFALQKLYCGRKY
Outline: as §1

[10] = biological target: T10, UniProt Q8VFZ6
T10 sequence (whole entry): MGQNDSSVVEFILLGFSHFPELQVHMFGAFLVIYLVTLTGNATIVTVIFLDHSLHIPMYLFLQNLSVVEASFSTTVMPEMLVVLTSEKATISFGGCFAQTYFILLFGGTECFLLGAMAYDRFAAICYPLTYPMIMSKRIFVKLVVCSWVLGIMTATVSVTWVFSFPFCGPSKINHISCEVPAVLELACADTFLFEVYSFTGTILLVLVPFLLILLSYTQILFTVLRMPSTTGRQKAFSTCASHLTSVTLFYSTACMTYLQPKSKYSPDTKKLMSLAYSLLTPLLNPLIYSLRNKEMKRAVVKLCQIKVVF
Outline: as §1

[11] = biological target: T11, UniProt Q8VG22
T11 sequence (whole entry): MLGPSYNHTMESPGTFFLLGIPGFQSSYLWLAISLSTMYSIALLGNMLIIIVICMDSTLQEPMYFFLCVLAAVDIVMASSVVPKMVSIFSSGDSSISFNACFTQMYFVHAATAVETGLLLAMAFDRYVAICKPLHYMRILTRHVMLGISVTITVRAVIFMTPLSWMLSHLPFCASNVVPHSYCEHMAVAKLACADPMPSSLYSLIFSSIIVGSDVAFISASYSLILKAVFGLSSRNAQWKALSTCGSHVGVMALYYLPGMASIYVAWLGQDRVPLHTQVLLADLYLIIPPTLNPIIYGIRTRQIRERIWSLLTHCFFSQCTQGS
Outline: as §1

[12] = biological target: UniProt Q8VG26
Outline: as §1

[13] = biological target: UniProt Q8VG28
Outline: as §1

[14] = biological target: T12, UniProt Q8VG49
T12 sequence (whole entry): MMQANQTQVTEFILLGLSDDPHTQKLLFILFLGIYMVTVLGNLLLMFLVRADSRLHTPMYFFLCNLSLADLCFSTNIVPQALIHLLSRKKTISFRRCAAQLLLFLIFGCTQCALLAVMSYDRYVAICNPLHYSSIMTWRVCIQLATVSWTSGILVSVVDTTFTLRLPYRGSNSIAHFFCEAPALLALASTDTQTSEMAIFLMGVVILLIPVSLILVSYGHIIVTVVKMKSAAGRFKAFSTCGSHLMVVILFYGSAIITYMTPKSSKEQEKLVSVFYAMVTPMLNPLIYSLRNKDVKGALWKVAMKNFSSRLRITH
Outline: as §1

[15] = biological target: T13, UniProt Q8VG77
T13 sequence (whole entry): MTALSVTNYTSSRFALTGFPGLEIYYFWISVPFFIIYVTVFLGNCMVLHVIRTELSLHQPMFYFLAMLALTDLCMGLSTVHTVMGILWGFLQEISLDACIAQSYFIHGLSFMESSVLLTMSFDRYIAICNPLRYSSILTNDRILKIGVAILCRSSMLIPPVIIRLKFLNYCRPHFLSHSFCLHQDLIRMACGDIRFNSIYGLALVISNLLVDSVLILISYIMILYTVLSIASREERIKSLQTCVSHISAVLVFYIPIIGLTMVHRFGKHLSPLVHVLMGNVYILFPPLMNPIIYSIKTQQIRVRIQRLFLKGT
Outline: as §1

[16] = biological target: T14, UniProt Q8VG96
T14 sequence (whole entry): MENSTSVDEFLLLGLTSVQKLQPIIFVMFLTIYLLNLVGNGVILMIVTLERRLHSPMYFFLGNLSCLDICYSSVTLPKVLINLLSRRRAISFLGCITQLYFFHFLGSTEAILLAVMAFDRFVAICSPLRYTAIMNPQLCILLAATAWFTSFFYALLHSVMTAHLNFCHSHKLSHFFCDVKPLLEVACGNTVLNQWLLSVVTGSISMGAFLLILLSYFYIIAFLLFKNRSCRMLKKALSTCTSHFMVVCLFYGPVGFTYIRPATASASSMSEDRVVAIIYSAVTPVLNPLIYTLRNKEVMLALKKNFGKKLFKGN
Outline: as §1

[17] = biological target: T15, UniProt Q8VGD7
T15 sequence (whole entry): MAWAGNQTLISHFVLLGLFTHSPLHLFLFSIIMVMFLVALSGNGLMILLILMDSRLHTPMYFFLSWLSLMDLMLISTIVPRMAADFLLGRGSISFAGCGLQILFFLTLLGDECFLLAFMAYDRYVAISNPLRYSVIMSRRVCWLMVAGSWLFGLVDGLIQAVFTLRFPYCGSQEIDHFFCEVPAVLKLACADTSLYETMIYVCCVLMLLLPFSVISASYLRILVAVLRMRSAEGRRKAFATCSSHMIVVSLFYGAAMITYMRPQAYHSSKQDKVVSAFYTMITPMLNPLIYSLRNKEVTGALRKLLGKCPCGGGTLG
Outline: as §1

[18] = biological target: UniProt Q8VFB8
Outline: as §1

[19] = biological target: UniProt Q8VFQ6
Outline: as §1

[20] = biological target: UniProt Q8VGE3
Outline: as §1

SMILES	odorant receptor agonist call [1]	odorant receptor agonist call [2]	odorant receptor agonist call [3]	odorant receptor agonist call [4]	odorant receptor agonist call [5]	odorant receptor agonist call [6]	odorant receptor agonist call [7]	odorant receptor agonist call [8]	odorant receptor agonist call [9]	odorant receptor agonist call [10]	odorant receptor agonist call [11]	odorant receptor agonist call [12]	odorant receptor agonist call [13]	odorant receptor agonist call [14]	odorant receptor agonist call [15]	odorant receptor agonist call [16]	odorant receptor agonist call [17]	odorant receptor agonist call [18]	odorant receptor agonist call [19]	odorant receptor agonist call [20]
CC1=CCC(C(C)(C)O)CC1 (stereo not given)	inactive																			
c1cnccn1	inactive	inactive	inactive	inactive	inactive	inactive	inactive	inactive												
C=CCc1ccc(OC)c(OC)c1	inactive	inactive	inactive	inactive	inactive	inactive	inactive	inactive												
CCCCCC(=O)O	inactive	inactive	inactive	inactive	inactive	inactive	inactive	inactive	inactive	inactive	inactive	inactive	inactive	inactive	inactive	inactive	inactive			
COC(=O)c1ccccc1O	inactive	inactive	inactive	inactive	inactive	inactive	inactive	inactive												
CC(=O)OC1CC2CCC1(C)C2(C)C (stereo not given)	inactive	inactive	inactive	inactive	inactive	inactive	inactive	active												
O=C1CCCCC1	inactive			inactive					inactive	inactive	active			inactive	inactive	inactive	active			
C=C(C)C1CC=C(C)C(=O)C1 (stereo not given)	active	inactive	inactive	inactive	inactive	inactive	inactive	inactive	inactive	inactive	active	inactive	inactive	inactive	inactive	active	inactive	inactive	active	active
CC(=O)c1ccccc1	inactive	inactive	inactive	inactive	inactive	inactive	inactive	inactive	inactive	inactive	active	inactive	inactive	inactive	inactive	active	inactive	inactive	inactive	active
CCCCCCCC=O	inactive	inactive	inactive	inactive	inactive	inactive	inactive	inactive	inactive	inactive	inactive			inactive	inactive	inactive	inactive			
CCCCCCCCCCC=O	inactive																			
C=CCc1ccc(O)c(OC)c1	inactive	inactive	inactive	inactive	inactive	inactive	inactive	inactive				inactive	inactive							
CC(C)=CCCC(C)=CC=O	inactive	inactive	inactive	inactive	inactive	inactive	inactive	inactive												
CC(C)CC(=O)O	inactive	inactive	inactive	inactive	inactive	inactive	inactive	inactive				inactive	inactive							
CC12CCC(C1)C(C)(C)C2=O (stereo not given)	inactive			inactive					inactive	inactive	inactive			inactive	inactive	inactive	inactive			
C=CC(C)(O)CCC=C(C)C (stereo not given)	inactive	inactive	inactive	inactive	inactive	inactive	inactive	inactive												

Quoted from the listing.
`O=C1CCCCC1` – odorant receptor agonist call [1]: inactive
`C=CCc1ccc(OC)c(OC)c1` – odorant receptor agonist call [6]: inactive
